Literature values, collected in patent US20260146084A1, “METHODS FOR TREATING MYELOFIBROSIS AND RELATED CONDITIONS” (Disc Medicine, Inc., priority 2019, published 2026).
For at least one compound, name, drawing or mass did not settle the structure.

Test system: myelofibrosis patients

Compound	effect on splenomegaly and disease symptoms
Cc1cnc(Nc2ccc(OCCN3CCCC3)cc2)nc1Nc1cccc(S(=O)(=O)NC(C)(C)C)c1 [Fedratinib]	improve splenomegaly and symptoms
N#CC[C@H](C1CCCC1)n1cc(-c2ncnc3[nH]ccc23)cn1 [ruxolitinib]	improve splenomegaly and symptoms
